Results are given in words; binding and its absence hold for the method and conditions named. Binding seen in cells or lysates may run through a third protein. Binding can be weak; no strength is given.
Target: T1, human cyclin H (human (endogenous in HFFs)) (UniProt P51946)
T1 sequence: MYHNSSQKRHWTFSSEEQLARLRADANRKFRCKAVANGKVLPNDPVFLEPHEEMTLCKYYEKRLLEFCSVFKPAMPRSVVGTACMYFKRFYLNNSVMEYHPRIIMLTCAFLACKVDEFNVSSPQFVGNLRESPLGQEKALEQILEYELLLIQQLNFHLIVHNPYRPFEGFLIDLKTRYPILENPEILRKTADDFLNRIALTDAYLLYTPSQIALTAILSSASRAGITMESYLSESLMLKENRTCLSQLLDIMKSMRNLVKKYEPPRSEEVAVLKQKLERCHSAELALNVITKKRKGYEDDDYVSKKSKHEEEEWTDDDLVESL
Assay: co-IP; HFFs in T75 flasks infected with HCMV TB40-IE2-YFP WT or ORF-UL97 point mutants, harvested 4-7 d.p.i.; cyclins T1, H, B1 immunoprecipitated with specific antibodies, pUL97 detected by Western blot; chicken Fc fragment as specificity control

HCMV protein kinase pUL97, strain TB40 wild type (TB40-IE2-YFP) (human cytomegalovirus, strain TB40) (enzyme)
binding: binds

Reference: publication PMC9569496
